At least one compound was matched to its structure with a doubt left.
Test system: histone (H4 and/or H3) acetylation in peripheral blood mononuclear cells
Experiment: Pharmacodynamic analysis: histone acetylation in peripheral blood mononuclear cells
Type: in vivo, human
Text: Histones were isolated and probed with anti-acetylated histone (H4 and/or H3) antibody followed by HRP-secondary antibody.

SMILES: O=C(/C=C/c1cccc(S(=O)(=O)Nc2ccccc2)c1)NO [PXD-101, N-hydroxy-3-(3-phenylsulfamoyl-phenyl)-acrylamide]
- H4 acetylation versus dose (PBMC, intravenous administration): Dose proportional H4 acetylation
- accumulation of acetylated histones in peripheral mononuclear cells (after intravenous administration, preliminary analysis): increase
